# Reference: PubChem BioAssay AID504467 (National Center for Advancing Translational Sciences (NCATS), 2011)
# Among all 330,000 compounds or so, about 7,700 (2.3%) were called active. Inconclusive means that the source gave no clear call. Such entries were picked first, then a sample of the others. The call rests on the fitted dose curve; in most records, active means well fitted inhibition curve with a large enough effect; inconclusive means small, poorly fitted or top-dose-only effect, or effect the other way; inactive means flat fitted curve, though single readings scatter. Potencies of inconclusive entries are doubtful fits and often do not repeat.
# Experiment: qHTS screen for small molecules that inhibit ELG1-dependent DNA repair in human embryonic kidney (HEK293T) cells expressing luciferase-tagged ELG1; further: nearly all actives have a fitted effect of over 55% in size
# Conditions: HEK293T ELG1-luciferase reporter, luminescence, 16 h, DNA damage induced by 5-fluorouridine; activity change, negative = inhibition: at 46.1 µM (top of the series)
# Outline: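 In this reporter screen, reduction of luminescence relative to DMSO vehicle indicated activity. Compounds and 5-fluorouridine were added together to 2,000 cells per well, incubated for 16 hr at 37 °C, then developed with ONE-Glo.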
# On the % scale 0 is the no-effect control and ±100 the full control effect; potency means the concentration at half of the fitted maximal effect.
Structure (SMILES),Potency,"activity change, negative = inhibition"
Cc1cccc(-c2cc3nc(C)cc(C)n3n2)c1,"inconclusive: 9.2 µM [activator, partial curve]",
CN(C(=O)c1cc2c(=O)n3ccccc3nc2n1C)C1CCCCC1,"inconclusive: 18.3 µM [activator, partial curve]",
Cc1cc(-c2cc(-c3ccc(Cl)cc3)nc(N)c2C#N)co1,,inactive: -1.13%
COCCNC(=O)CSc1nc(-c2ccccc2)c(-c2ccccc2)o1,"inconclusive: 1.64 µM [inhibitor, partial curve, poor fit]",
CCN(Cc1ccncc1)C(=O)c1ccc(C)c(S(=O)(=O)N2CCCCC2)c1,"inconclusive: 2.06 µM [inhibitor, partial curve]",
CNc1nc2[nH]c(=O)c3c(c2s1)OC(N)=C(C#N)C3c1cccc(F)c1 (stereo not drawn),,inactive: -4.45%
COCn1c(-c2ccccc2)nc2ccccc21,"inconclusive: 20.6 µM [activator, partial curve, poor fit]",
O=C1N=C(N2CCCC2)S/C1=C\c1ccccc1,,inactive: 15.7%
Cc1ccccc1C1NC(=S)NC2=C1C(=O)CC(C)(C)C2 (stereo not drawn),"inconclusive: 20.6 µM [inhibitor, partial curve, poor fit]",
CCC(CO)NCc1ccc(-c2ccccc2)cc1 (stereo not drawn),"inconclusive: 20.6 µM [activator, partial curve, poor fit]",
COc1ccc(N2C(=O)CC(N3CCC(O)(c4ccc(Br)cc4)CC3)C2=O)cc1 (stereo not drawn),,inactive: 2.02%
CCn1c(CNC(=O)c2ccccc2F)nnc1SCC(=O)Nc1nncs1,,inactive: 14.4%
COc1ccc2c(C)cc(C)nc2n1,,inactive: -7.39%
CCCN1CCN(C(=S)Nc2ccc([N+](=O)[O-])cc2)CC1,,inactive: 17.9%
NC(=O)c1ccc2nc(NC(=O)c3ccc(N)cc3)sc2c1,"inconclusive: 25.9 µM [activator, single point]",
Cc1cnc(NC(=O)CSc2ccc(Cl)cc2)s1,,inactive: -9.64%
CCCCCC(=O)N/N=C(\C)c1ccc(NC(=O)c2ccco2)cc1,"inconclusive: 20.6 µM [activator, partial curve]",
CCOC(=O)c1ccc(NC(=O)CCCN2C(=O)NC3(CCCC3)C2=O)cc1,"inconclusive: 16.4 µM [activator, partial curve, poor fit]",
Cc1c(C#N)c(NC(=O)CCl)n(Cc2ccc(F)cc2)c1C,"inconclusive: 6.51 µM [activator, partial curve]",
COc1ccc(NC(=O)C(Cc2ccccc2)n2cccc2)c(OC)c1 (stereo not drawn),"inconclusive: 25.9 µM [inhibitor, partial curve]",
Cc1cc(C(=O)CN2C(=O)C(=O)N(Cc3ccco3)C2=O)c(C)n1CCc1ccc(F)cc1,"inconclusive: 35.5 µM [inhibitor, single point]",
CC(=O)c1cccc(NC(=O)c2ccc(OC3CSC3)cc2)c1,"inconclusive: 2.91 µM [activator, partial curve, poor fit]",
COc1ccc(CCN2CCCn3c2nc2c3c(=O)n(C)c(=O)n2C)cc1OC,,inactive: -13.3%
CN(C)c1ccc(S(=O)(=O)N2CCCCC2)cc1NC(=O)CN1C(=O)NC(C)(c2ccccc2)C1=O (stereo not drawn),"inconclusive: 11.6 µM [inhibitor, single point]",
Cc1ccc(-c2nnc(SCC(=O)N3CCCC3)o2)cc1C,"inconclusive: 10 µM [activator, partial curve]",

Structure (SMILES),Potency,"activity change, negative = inhibition"
COc1ccc(C2N(c3ccccc3)CCN2c2ccccc2)cc1O,,inactive: 16.1%
Cc1ccc(NC(=O)N2CCN(c3ccccn3)CC2)cc1,,inactive: 7.27%
O=C(Nc1ccc2c(c1)CCCN2C(=O)c1ccccc1)c1ccccc1Br,,inactive: -8.32%
Cc1ccc(S(=O)(=O)n2cc(-c3ccccc3)c3ccccc32)cc1,"inconclusive: 20.6 µM [activator, partial curve, poor fit]",
Cc1c(Cc2ccccc2)c(NCCCO)n2c(nc3ccccc32)c1C#N,"inconclusive: 23.1 µM [inhibitor, partial curve, poor fit]",
COc1ccc(OCC(O)CN2CCN(c3ccccc3)CC2)cc1 (stereo not drawn),,inactive: 5.24%
COc1ccc(N(CC(=O)Nc2ccc(OC)cc2OC)S(=O)(=O)c2ccccc2)cc1,"inconclusive: 18.3 µM [inhibitor, single point]",
CCOC(=O)c1c(C)c(C(=O)NCc2cccs2)c(C)n1CC,"inconclusive: 4.61 µM [inhibitor, single point]",
CCNc1nc(NCC)nc(N/N=C(\C)c2ccc(OC)cc2)n1,"inconclusive: 29.1 µM [inhibitor, single point]",
CC1CCCC(NC(=O)C2N(CCCN3CCCC3)C(=O)C3C(C(=O)Nc4cccc(Cl)c4)C4C=CC32O4)C1C (stereo not drawn),,inactive: 10.8%
CCOc1ccc(NC(=O)CNC(=O)c2ccco2)cc1,"inconclusive: 18.3 µM [activator, single point]",
CC(=O)c1cccc(Nc2nc3ccccc3n3cnnc23)c1,,inactive: -12.9%
O=C(/C=C\Nc1cccc(F)c1)c1cccs1,"inconclusive: 1.46 µM [activator, full curve]",
N#Cc1cnn(CC2CCCCC2)c1N,,inactive: 1.23%
CCN(CC)c1ccc(NC(=S)NC(=O)Cc2ccccc2)cc1,,inactive: 8.67%
COc1cccc(CNCC(=O)NC(=O)NC2CCCC2)c1,,inactive: 3.19%
CC(=O)c1cccc(OCCCOc2cccc3cccnc23)c1,,inactive: 6.84%
COc1ccccc1-c1c(C(F)(F)F)oc2cc(OCC(=O)Nc3ccccc3C(F)(F)F)ccc2c1=O,"inconclusive: 20.6 µM [inhibitor, partial curve, poor fit]",
CCOC(=O)c1c(N)nn(C(=O)C(C)(C)C)c1-c1ccccc1,"inconclusive: 16.4 µM [activator, single point]",
COc1ccccc1/C=C/C(=O)NCC(=O)n1nc(C)cc1C,"inconclusive: 18.3 µM [activator, single point]",
Cc1ccc(NCC(=O)c2ccc(C)cc2)cc1,"inconclusive: 16.4 µM [activator, partial curve]",
CCN1CCc2c(OCC(=O)Nc3ccc4c(c3)OCCO4)cccc2C1=O,,inactive: -24.8%
CC(=O)N(NC(=O)c1ccccc1Cl)C1CC(=O)N(c2ccc(C)cc2)C1=O (stereo not drawn),,inactive: 9.66%
COc1cc(OC)c(N(C)S(=O)(=O)c2cccc(C(=O)Nc3nc(C)cs3)c2)cc1Cl,active: 18.3 µM,
C=CCOC(=O)C1=C(C)Nc2nc3ccccc3n2C1c1ccncc1 (stereo not drawn),"inconclusive: 20.6 µM [inhibitor, partial curve]",

# Fetched one by one from above:
Structure (SMILES),Potency,"activity change, negative = inhibition"
CC1CCCC(NC(=O)C2N(CCCN3CCCC3)C(=O)C3C(C(=O)Nc4cccc(Cl)c4)C4C=CC32O4)C1C (stereo not drawn),,inactive: 10.8%
CCN(Cc1ccncc1)C(=O)c1ccc(C)c(S(=O)(=O)N2CCCCC2)c1,"inconclusive: 2.06 µM [inhibitor, partial curve]",
COc1ccc(N(CC(=O)Nc2ccc(OC)cc2OC)S(=O)(=O)c2ccccc2)cc1,"inconclusive: 18.3 µM [inhibitor, single point]",
CCC(CO)NCc1ccc(-c2ccccc2)cc1 (stereo not drawn),"inconclusive: 20.6 µM [activator, partial curve, poor fit]",
CCOC(=O)c1c(C)c(C(=O)NCc2cccs2)c(C)n1CC,"inconclusive: 4.61 µM [inhibitor, single point]",

# Further entries follow.

Structure (SMILES),Potency,"activity change, negative = inhibition"
O=C(NCC1COc2ccccc2O1)C1CCCN(S(=O)(=O)c2cccc3cccnc23)C1 (stereo not drawn),active: 14.6 µM,
CC(C)(C)C(=O)Nc1ccc(NC(=O)C(C)(C)C)cc1,"inconclusive: 25.9 µM [activator, partial curve]",
Cc1ccc(-c2nnc(Nc3ccc4c(c3)nc(C)n4C)c3ccccc23)cc1,"inconclusive: 16.4 µM [inhibitor, partial curve, poor fit]",
CCCN(CC(=O)Nc1ccccc1C)C(=O)/C=C/c1ccc(S(=O)(=O)N2CCCCCC2)cc1,"inconclusive: 8.2 µM [inhibitor, partial curve]",
Cc1ccc(NC(=O)COc2ccc(Br)cc2CO)cc1S(=O)(=O)N1CCOCC1,active: 20.6 µM,
Cc1ccsc1C1C(C#N)=C(N)N(N(C)C)C2=C1C(=O)CC(C)(C)C2 (stereo not drawn),,inactive: -2.99%
O=C(NC(=S)Nc1ccc(CN2CCOCC2)cc1)c1ccc(-c2ccc(Br)cc2)o1,"inconclusive: 16.4 µM [inhibitor, single point]",
CCCn1nc(C(=O)NCc2ccccn2)c2ccccc2c1=O,"inconclusive: 3.66 µM [inhibitor, partial curve, poor fit]",
Cc1ccc(-n2cc(CN3CCN(Cc4nccn4C)CC3)c(-c3ccc(F)cc3)n2)cc1,"inconclusive: 18.3 µM [inhibitor, single point]",
C[C@H](CO)N1C[C@H](C)[C@@H](CN(C)S(=O)(=O)c2ccccc2)Oc2c(NC(=O)C3CCCCC3)cccc2C1=O,,inactive: 21.7%
COc1ccc(C(=O)Nc2oc(-c3ccccc3)c(-c3ccccc3)c2C#N)cc1OC,"inconclusive: 10.3 µM [inhibitor, partial curve, poor fit]",
O=C(CNC(=O)c1cccs1)N/N=C/c1c(F)cccc1Cl,"inconclusive: 29.1 µM [activator, single point]",
N#Cc1ccccc1NCC(=O)N1CCN(S(=O)(=O)c2ccccc2)CC1,,inactive: -11.2%
COC(=O)c1ccc(OC(=O)c2ccncc2)cc1O,,inactive: 16%
Cc1cc(=O)[nH]c(SCC(=O)Nc2nc3ccccc3s2)n1,,inactive: 6.5%
Cc1cccc(/C=C/c2onc(C)c2S(=O)(=O)N2CCC(C(=O)NC(C)C)CC2)c1,"inconclusive: 9.2 µM [inhibitor, partial curve]",
Cn1cc([N+](=O)[O-])c(C(=O)Nc2ccc3c(c2)OCCO3)n1,"inconclusive: 14.6 µM [activator, partial curve, poor fit]",
Cc1ccc(C(=O)CSc2nc3ccccc3c(=O)[nH]2)cc1,"inconclusive: 16.4 µM [activator, single point]",
O=C1N=C(N2CCOCC2)S/C1=C\c1ccc(OS(=O)(=O)c2ccccc2)cc1,"inconclusive: 23.1 µM [inhibitor, single point]",
NC(=O)C1CCN(c2nc(-c3ccc4c(c3)OCCO4)cs2)CC1,,inactive: 17.2%
Cc1sc2nc(C)n(/N=C/c3ccc(O)cc3)c(=O)c2c1C,,inactive: 2.26%
Cc1noc(C)c1S(=O)(=O)N(C)C[C@H]1Oc2ccc(NC(=O)CCC(F)(F)F)cc2C(=O)N([C@H](C)CO)C[C@@H]1C,,inactive: -0.456%
Cc1cc(NC(=O)CCC(=O)N(c2ccccc2)C(C(=O)NCC2CCCO2)c2cccnc2)no1 (stereo not drawn),"inconclusive: 1.84 µM [inhibitor, partial curve, poor fit]",
